For this test, the target named is GST-Pin1 (UniProt Q13526). Briefly: pull-down; lysates of COS-7 cells transfected with HA-CREB (stimulated with 10 µM forskolin for 6 hr) incubated with 30 µg of GST-Pin1 for 30 min at 4°C, then glutathione-sepharose 4B beads for 1 hr at 4°C; washed three times; blot with anti-HA antibody; only the target purified.

The chains behind the UniProt entries cited, without tags or fusion partners. Where a name states a change or a piece, a line headed by the entry shows the natural chain unless it says otherwise. A line that says so, or that is headed by a name, gives the form on record, which may keep a tag or linker.
UniProt Q13526: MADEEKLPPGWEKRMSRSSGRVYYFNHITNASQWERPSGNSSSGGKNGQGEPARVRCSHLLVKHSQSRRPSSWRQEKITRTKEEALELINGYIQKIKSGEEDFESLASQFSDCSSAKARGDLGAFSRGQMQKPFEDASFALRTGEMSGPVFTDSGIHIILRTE
HA-CREB wild-type (P16220-1, form named): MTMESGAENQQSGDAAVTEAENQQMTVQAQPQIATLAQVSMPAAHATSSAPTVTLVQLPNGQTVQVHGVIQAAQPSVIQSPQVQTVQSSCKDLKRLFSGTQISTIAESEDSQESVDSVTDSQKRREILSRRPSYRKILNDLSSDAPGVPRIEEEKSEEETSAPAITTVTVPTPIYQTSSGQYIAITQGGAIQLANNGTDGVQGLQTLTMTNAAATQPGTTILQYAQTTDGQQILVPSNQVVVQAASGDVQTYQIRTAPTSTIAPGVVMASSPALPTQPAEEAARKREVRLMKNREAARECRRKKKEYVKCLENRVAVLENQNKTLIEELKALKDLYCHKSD

These are yes or no findings as the source states them, for the method shown. Binding seen in cells or lysates may run through a third protein. Some binding calls cover weakened binding; strength is not graded here.

The source of these data is paper PMC3296696.

In the case of “HA-CREB wild-type (from UniProt P16220-1 1-341)”, the binding result is “binds”.
